Results taken from article PMC4751086.
Changes are numbered by the printed parent chain. No constants are given. Whether binding was seen depends on the method and setting. For some of these results: In cells and extracts the contact can be indirect. Some entries that bind do so weakly or less than the wild type. For some of these results: Sequences can lack the tags named with a protein. Each block holds one substance with its values, some of them ahead of it.

Protein sequences, listed by entry. Tags and fused reporters are not part of them. Residues count along the entry.
UniProt Q8WUM4, residues 1-359: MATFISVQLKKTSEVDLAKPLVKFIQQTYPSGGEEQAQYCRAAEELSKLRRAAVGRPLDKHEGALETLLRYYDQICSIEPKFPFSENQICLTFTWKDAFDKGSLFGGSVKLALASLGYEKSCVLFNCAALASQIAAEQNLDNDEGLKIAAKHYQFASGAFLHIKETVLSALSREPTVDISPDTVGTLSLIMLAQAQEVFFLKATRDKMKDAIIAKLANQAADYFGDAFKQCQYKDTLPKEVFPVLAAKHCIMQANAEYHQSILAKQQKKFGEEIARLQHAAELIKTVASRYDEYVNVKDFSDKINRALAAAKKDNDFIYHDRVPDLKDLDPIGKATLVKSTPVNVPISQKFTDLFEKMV

Key:
[1] = target: T1, HD-PTP(1–712;T145K) (human) (UniProt Q9H3S7); assay: co-IP; HEK293 cells transiently transfected with Flag-tagged HD-PTP(1–712) variants and HA-tagged STAM2 or CHMP4B; lysis in 50 mM Tris-HCl (pH 7.5), 150 mM NaCl, 1% Nonidet P40, 0.5% sodium deoxycholate, 1 mM EDTA; anti-HA agarose or anti-Flag M2 agarose; immunoblotting
T1 sequence: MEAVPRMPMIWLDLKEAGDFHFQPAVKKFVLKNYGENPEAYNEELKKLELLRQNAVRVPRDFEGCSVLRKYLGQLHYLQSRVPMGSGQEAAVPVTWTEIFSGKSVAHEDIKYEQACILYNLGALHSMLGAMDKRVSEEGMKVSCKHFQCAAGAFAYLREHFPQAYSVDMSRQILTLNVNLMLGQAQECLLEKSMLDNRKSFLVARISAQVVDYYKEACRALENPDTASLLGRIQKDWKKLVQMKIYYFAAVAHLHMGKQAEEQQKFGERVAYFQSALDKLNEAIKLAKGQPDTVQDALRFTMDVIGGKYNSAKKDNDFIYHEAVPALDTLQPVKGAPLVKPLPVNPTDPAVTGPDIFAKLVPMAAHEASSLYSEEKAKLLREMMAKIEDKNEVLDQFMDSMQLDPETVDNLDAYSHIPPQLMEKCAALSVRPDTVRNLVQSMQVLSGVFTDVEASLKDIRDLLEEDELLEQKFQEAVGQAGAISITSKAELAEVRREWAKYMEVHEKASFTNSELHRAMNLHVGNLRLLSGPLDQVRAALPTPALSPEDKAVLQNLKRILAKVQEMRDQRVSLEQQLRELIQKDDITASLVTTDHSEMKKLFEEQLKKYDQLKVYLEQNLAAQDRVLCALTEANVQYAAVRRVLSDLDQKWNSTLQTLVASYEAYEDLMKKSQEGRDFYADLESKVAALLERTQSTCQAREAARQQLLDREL

[2] = target: T2, Flag–HD-PTP(1–712) (human) (UniProt Q9H3S7); assay: as above
T2 sequence: T1 sequence with K145T

HD-PTP(1–361) (human) [3] = target: HD-PTP(1–361) (human) (UniProt Q9H3S7); assay: condition: 0.5 mM peptide titrated into 50 μM HD-PTP(1–361); ITC; 0.5 mM peptide titrated into 50 μM protein; iTC200; 2°C as printed; 20 mM Tris-HCl (pH 7.5), 100 mM NaCl; both purified
HD-PTP(1–361) (human) [4] = target: HD-PTP(1–361) (human) (UniProt Q9H3S7); assay: SEC; Superose 6 10/300 GL gel filtration column; mixture of HD-PTP(1–361) and STAM2 fragment; peak fractions analysed by SDS-PAGE and Coomassie staining; both purified
Brox(1–374) (human) = target: T3, Brox(1–374) (human) (UniProt Q5VW32); assay: condition: 0.5 mM peptide titrated into 50 μM protein; ITC; 0.5 mM peptide titrated into 50 μM protein; iTC200; 2°C as printed; 20 mM Tris-HCl (pH 7.5), 100 mM NaCl; both purified
T3 sequence: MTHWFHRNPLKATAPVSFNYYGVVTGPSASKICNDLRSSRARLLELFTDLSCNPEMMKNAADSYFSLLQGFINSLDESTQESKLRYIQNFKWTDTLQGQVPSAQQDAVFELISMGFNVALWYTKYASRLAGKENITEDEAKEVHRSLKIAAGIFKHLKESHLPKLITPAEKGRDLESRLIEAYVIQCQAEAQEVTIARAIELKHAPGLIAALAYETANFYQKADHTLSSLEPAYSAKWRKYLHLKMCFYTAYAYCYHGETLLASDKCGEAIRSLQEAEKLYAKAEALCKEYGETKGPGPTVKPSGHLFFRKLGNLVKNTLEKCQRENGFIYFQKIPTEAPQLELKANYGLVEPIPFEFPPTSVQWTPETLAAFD

[5] = target: T4, HD-PTP(1–361;T145R) (human) (UniProt Q9H3S7); assay: as above
T4 sequence: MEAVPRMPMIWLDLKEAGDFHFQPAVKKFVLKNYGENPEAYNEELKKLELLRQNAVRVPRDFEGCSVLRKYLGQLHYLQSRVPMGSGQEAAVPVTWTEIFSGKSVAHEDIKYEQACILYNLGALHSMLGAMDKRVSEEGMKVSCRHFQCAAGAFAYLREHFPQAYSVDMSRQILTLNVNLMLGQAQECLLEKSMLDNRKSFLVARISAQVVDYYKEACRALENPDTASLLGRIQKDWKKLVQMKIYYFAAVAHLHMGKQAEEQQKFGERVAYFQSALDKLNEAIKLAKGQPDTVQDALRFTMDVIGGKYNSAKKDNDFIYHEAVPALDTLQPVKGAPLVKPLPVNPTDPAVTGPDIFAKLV

Alix(1–359) (human) = Alix(1–359) (human) (UniProt Q8WUM4); assay: as above
[6] = target: T5, HD-PTP(1–361;T145K) (human) (UniProt Q9H3S7); assay: as above
T5 sequence: T4 sequence with R145K

HD-PTP(1–361) (human) [7] = target: HD-PTP(1–361) (human) (UniProt Q9H3S7); assay: condition: 0.5 mM peptide titrated into 50 μM HD-PTP protein; ITC; 0.5 mM peptide titrated into 50 μM protein; iTC200; 2°C as printed; 20 mM Tris-HCl (pH 7.5), 100 mM NaCl; both purified

Substance: HA–STAM2(1–370;Y361A) (from UniProt O75886 1-370) (domain or fragment)
binding [2]: no binding

Substance: STAM2(350–370) peptide with alanine substitution of Tyr361 (from UniProt O75886 350-370)
binding (HD-PTP(1–361) (human) [7]): no binding

More lines, now with the values ahead:

binding [1]: binds weakly
binding [2]: binds
Substance: HA–STAM2(1–370) (from UniProt O75886 1-370) (domain or fragment)

binding (HD-PTP(1–361) (human) [3]): no binding
Substance: STAM2 peptide of 46-mer (residues 371–416) (from UniProt O75886 371-416)

binding (HD-PTP(1–361) (human) [4]): no binding
Substance: STAM2(260–310) (from UniProt O75886 260-310) (domain or fragment)

binding (Brox(1–374) (human)): no binding
binding [5]: no binding
binding (Alix(1–359) (human)): no binding
binding [6]: no binding
Substance: STAM2(350–370) (from UniProt O75886 350-370) (peptide)
